Screen size: about 52,000 sequences; about 210 (0.4%) were called active.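 How the source made its calls: active means gene whose silencing raises cell survival under the drug, median off-target-corrected z-score across its silencing RNAs 2 or more; inactive means the rest.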 Some of the results follow.
Experiment: Resistance to Poly (ADP-Ribose) Polymerase inhibitor: Gene Identification via Genome-wide siRNA Screen
Details: mouse BRCA2 R2336H ES cells, olaparib, CellTiter-Glo viability; active compounds read high
In short: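 Genome-wide siRNA screen (3 siRNAs/gene, 20 nM) in mouse ES cells carrying hypomorphic BRCA2 R2336H; olaparib 500 nM added 48 h post-transfection, CellTiter-Glo viability 72 h later. Normalized to plate-median negative control; MAD z-scores, gene median, seed-adjusted.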

Question: With “GCAAUUGCUUUGCAUUUACTT against 9630005B12Rik” as the sequence, how does the z-score read?
Answer: The z-score was inactive: 0.836.

Question: With CGAUGUCAAUGUACUAAUUTT against Rhov as the sequence, how does the z-score read?
Answer: The z-score was inactive: 0.359.

Question: Which z-score does the source give for “GGAGAUGGUUGGAUCAUUCTT against D10Ertd610e” here?
Answer: Its z-score is inactive: 0.642.

Question: For GGAAUUAAGAUCACUCACUTT against Cel, which z-score is on record?
Answer: The z-score was inactive: -1.

Question: For GGAACGCAAAGAUGACCGUTT against Rnf20, which z-score is on record?
Answer: Its z-score is inactive: -0.474.

Question: Which z-score does the source give for UACCCAUUGUCAAGUUGGATT against Grm4 here?
Answer: The z-score was inactive: -1.77.

Question: Which z-score does the source give for GCUUCACAUGAAGCAACCUTT against AA536717 here?
Answer: Its z-score is inactive: 0.198.

Question: Which z-score does the source give for GCCGGCAGUAAAGAUUCAUTT against Cog2 here?
Answer: The z-score was inactive: 1.17.

Question: Which z-score does the source give for GCCUCCUAGAUGAUAUCAGTT against Socs7 here?
Answer: Its z-score is inactive: 2.27.

Question: For CGAGCCACACCAAUAGAAGTT against Csnk1g3, which z-score is on record?
Answer: The z-score was inactive: -1.1.

Question: Which z-score does the source give for “GGAUCCACAGUCAUUCAGATT against 5730470L24Rik” here?
Answer: The z-score was inactive: 0.079.

Question: With GGGCUACUUAAUGAGUUACTT against Polg2 as the sequence, how does the z-score read?
Answer: Its z-score is inactive: 0.504.

Question: Which z-score does the source give for GGAUGUGUUCUAUUCUAUATT against Oprl1 here?
Answer: Its z-score is inactive: 2.59.

Question: With GGAGAUGGAAGCUAUUUUCTT against Hoxb1 as the sequence, how does the z-score read?
Answer: The z-score was inactive: 0.266.

Question: With “GGAAGUGCUCUGCUGUACATT against C230094A16Rik” as the sequence, how does the z-score read?
Answer: Its z-score is inactive: -1.65.

Question: For GGAGCUUAUGUUCAAAAUATT against Nasp, which z-score is on record?
Answer: The z-score was inactive: 2.32.

Question: Which z-score does the source give for GGUUGUGACUACACUAUGGTT against Zfp456 here?
Answer: Its z-score is inactive: 0.801.

Question: Which z-score does the source give for CCGUGGUAAUGUGAACUAUTT against Cln6 here?
Answer: Its z-score is inactive: 1.82.

Question: Which z-score does the source give for CCUGUGAAUACUUUCACUCTT against Bok here?
Answer: Its z-score is inactive: 1.25.

Question: With CCCUGCUAUCAGCAUCACATT against AW742319 as the sequence, how does the z-score read?
Answer: Its z-score is inactive: -1.14.

Question: For CGUUACACGUACUUCAAGGTT against Wnt3a, which z-score is on record?
Answer: Its z-score is inactive: 1.89.

Question: With CGGUGUGAUGCGGAUUUUUTT against Cacna2d2 as the sequence, how does the z-score read?
Answer: The z-score was inactive: 0.753.

Question: For GGUGACUUCAGAUGUGGCCTT against Bat8, which z-score is on record?
Answer: Its z-score is inactive: 0.364.

Question: With CCAAGUCCCUUUGUGGUGUTT against Peo1 as the sequence, how does the z-score read?
Answer: The z-score was inactive: 0.13.

Question: Which z-score does the source give for GCUUGGUGGGUUUGUUGAUTT against MGC74379 here?
Answer: Its z-score is inactive: 1.21.

Question: For GCACCUGUGGAGUUCUCUATT against Trp73, which z-score is on record?
Answer: The z-score was inactive: -0.0382.

Question: For “GCCCACAUCUGAUCUUAAATT against A130072J07”, which z-score is on record?
Answer: The z-score was inactive: 0.0502.

Question: With GACUAUGUGGUCUACUCGUTT against Drd4 as the sequence, how does the z-score read?
Answer: The z-score was inactive: 0.0128.

Question: For CCAACGAACCUUAUUUCUUTT against Lman2, which z-score is on record?
Answer: Its z-score is inactive: 0.806.

Question: With GCUAUUCUUUUUCUGCUUUTT against Olfr893 as the sequence, how does the z-score read?
Answer: Its z-score is inactive: -0.244.

Question: For “GCUGUUUUGAGGAGCCUUCTT against D12Ertd748e”, which z-score is on record?
Answer: Its z-score is inactive: -2.79.

Question: Which z-score does the source give for GGCUGUGCAAGCAAAACCUTT against Mad1l1 here?
Answer: The z-score was inactive: 0.271.

Question: With GGUGCAGAACAAUUCGGUUTT against Tnfsf4 as the sequence, how does the z-score read?
Answer: Its z-score is inactive: 0.597.

Question: With “GGUGAAAACCUCAUAAAUGTT against A630033E08Rik” as the sequence, how does the z-score read?
Answer: Its z-score is inactive: 1.15.

Question: With GCAACGGACCUUUAAAAAATT against Rkhd1 as the sequence, how does the z-score read?
Answer: Its z-score is inactive: 1.18.

Question: Which z-score does the source give for “CCACGUCUUUGAGGUACCUTT against 4930413P14Rik” here?
Answer: The z-score was inactive: -0.943.

Question: For GAUGGUCAUCCUUCCUUUATT against Olfr341, which z-score is on record?
Answer: Its z-score is inactive: 0.529.

Question: With “CCGGAUUGAAGAGUUGUAUTT against 1110002N22Rik” as the sequence, how does the z-score read?
Answer: The z-score was inactive: 0.245.

Question: With GGUGAAUCGUGUUUCUGGATT against BC021381 as the sequence, how does the z-score read?
Answer: Its z-score is inactive: -1.11.

Question: With “GGAAGAUACCAAAAUCUUATT against 1700083M11Rik” as the sequence, how does the z-score read?
Answer: Its z-score is inactive: 0.295.

Question: For GCCCACAUCAGCUAUCGUUTT against Atf2, which z-score is on record?
Answer: The z-score was inactive: -0.339.

Question: With GGAUUUUGAACCCAGUUAUTT against Siat9 as the sequence, how does the z-score read?
Answer: Its z-score is inactive: -1.37.

Question: For GGUUGGGCAAACCUGUCAATT against Olfr1121, which z-score is on record?
Answer: Its z-score is inactive: -1.23.

Question: For CGAUCUCAGAGGAUAAGUUTT against Nxf3, which z-score is on record?
Answer: The z-score was inactive: -2.07.

Question: For “GGAUGAAGAACCACUCAAATT against D1Ertd161e”, which z-score is on record?
Answer: Its z-score is inactive: -1.22.

Question: For GGAGAAUAAAACUUCCAGATT against Urod, which z-score is on record?
Answer: Its z-score is inactive: 0.379.

Question: With GCUUGUGCCAAGCAUUCUUTT against Rdh1 as the sequence, how does the z-score read?
Answer: The z-score was inactive: -0.327.

Question: With GACAAAGAGUCCCUGAACCTT against Emp3 as the sequence, how does the z-score read?
Answer: The z-score was inactive: -0.458.

Question: With CCAAUGCCUGUUUAAUAAATT against LOC381813 as the sequence, how does the z-score read?
Answer: The z-score was inactive: -0.0637.

Question: For “GGGCAUUCUAUUAAACAUGTT against 2410018C17Rik”, which z-score is on record?
Answer: Its z-score is inactive: 2.49.

Question: For GCCCAUAUCUUCUUCACUGTT against Stxbp2, which z-score is on record?
Answer: Its z-score is inactive: -1.15.

Question: With GGAUGUGGUUCGAGUAUGGTT against Pou5f1 as the sequence, how does the z-score read?
Answer: The z-score was inactive: -1.03.

Question: Which z-score does the source give for GCAACUUUGUAGCUCCUUCTT against Srebf2 here?
Answer: The z-score was inactive: 1.62.

Question: With GACAAUGCGUGCAACGAUATT against Grcc10 as the sequence, how does the z-score read?
Answer: Its z-score is inactive: 0.381.

Question: Which z-score does the source give for CCUCAAUUAUACCAAGAUUTT against Mapre3 here?
Answer: The z-score was inactive: 1.25.

Question: Which z-score does the source give for GAAAAUAGAUAAAAGGACCTT against Defb6 here?
Answer: The z-score was inactive: -0.0577.

Question: With GCGGAUUCAAAACCUUAGUTT against Drp2 as the sequence, how does the z-score read?
Answer: Its z-score is inactive: -0.525.

Question: With “GGGCCUCCUGUAAACAUCCTT against D630039A03Rik” as the sequence, how does the z-score read?
Answer: The z-score was inactive: 1.29.

Question: For GGAAGACAUCAAGAUGUAATT against Rp1hl1, which z-score is on record?
Answer: Its z-score is inactive: -0.66.

Question: For GGACAUGGAGACUCUGAAGTT against Ptov1, which z-score is on record?
Answer: Its z-score is inactive: -0.39.

Question: With GGGACAAGGCAGAAAUUUUTT against Tcf15 as the sequence, how does the z-score read?
Answer: Its z-score is inactive: 2.19.

Question: For CCAUCCAUCUAUCUUCACCTT against Nanos2, which z-score is on record?
Answer: Its z-score is inactive: 1.39.

Question: Which z-score does the source give for GCCUUACUUCGGAGUGCUATT against Olfr606 here?
Answer: The z-score was inactive: -0.998.

Question: For GCUUAGGGUGUUGAAAGGCTT against AI854703, which z-score is on record?
Answer: The z-score was inactive: -0.0689.

Question: For “GGCUGUAGAAGGCUUAUUATT against 6030411K04Rik”, which z-score is on record?
Answer: Its z-score is inactive: -3.23.

Question: For GGAAAGUUGGACCUUCUGATT against Adamts6, which z-score is on record?
Answer: The z-score was inactive: 0.712.

Question: Which z-score does the source give for CGGCCUGGUACCAUCUUAUTT against Antxr2 here?
Answer: The z-score was inactive: 0.39.
